{"source": "the supplement of paper PMC10077471", "note": "Whole data set: some 1,900 compounds, median “excess over highest single agent (ExcessHSA) synergy score, 6x6 matrix” near -83, cut for the lowest 2% near -370. The list shows a part of the results."}
{"system": "NCI-H446", "assay": "excess over highest single agent (ExcessHSA) synergy score, 6x6 matrix; higher = less synergy (more negative = stronger synergy)", "settings": "72 h; CellTiter-Glo viability"}
{"smiles": "Cc1cc(C(C)(C)C)cc(C)c1CC1=NCCN1", "note": "+ Cc1sc2c(c1C)C(c1ccc(Cl)cc1)=N[C@@H](CC(=O)OC(C)(C)C)c1nnc(C)n1-2 [NCGC00250412-19]", "excess over highest single agent": -68.7}
{"smiles": "CC(C)(CO)[C@@H](O)C(=O)NCCC(=O)O", "note": "+ Cc1sc2c(c1C)C(c1ccc(Cl)cc1)=N[C@@H](CC(=O)OC(C)(C)C)c1nnc(C)n1-2 [NCGC00250412-19]", "excess over highest single agent": -84.9}
{"smiles": "COc1ccc2c3n(c(=NC(=O)c4cccnc4)nc2c1OC)CCN3", "note": "+ Cc1sc2c(c1C)C(c1ccc(Cl)cc1)=N[C@@H](CC(=O)OC(C)(C)C)c1nnc(C)n1-2 [NCGC00250412-19]", "excess over highest single agent": -292}
{"smiles": "CC#CCn1c(N2CCC[C@@H](N)C2)nc2c1c(=O)n(Cc1nc(C)c3ccccc3n1)c(=O)n2C", "note": "+ Cc1sc2c(c1C)C(c1ccc(Cl)cc1)=N[C@@H](CC(=O)OC(C)(C)C)c1nnc(C)n1-2 [NCGC00250412-19]", "excess over highest single agent": -192}
{"smiles": "CNC(=O)c1ccc(N2C(=S)N(c3ccc(C#N)c(C(F)(F)F)c3)C(=O)C2(C)C)cc1F", "note": "+ Cc1sc2c(c1C)C(c1ccc(Cl)cc1)=N[C@@H](CC(=O)OC(C)(C)C)c1nnc(C)n1-2 [NCGC00250412-19]", "excess over highest single agent": -276}
{"smiles": "CN1[C@@H]2C[C@@H](OC(=O)[C@H](CO)c3ccccc3)C[C@H]1[C@@H]1O[C@@H]12", "note": "+ Cc1sc2c(c1C)C(c1ccc(Cl)cc1)=N[C@@H](CC(=O)OC(C)(C)C)c1nnc(C)n1-2 [NCGC00250412-19]", "excess over highest single agent": -11.6}
{"smiles": "COc1cc(OC)c(NC(=O)Nc2cc(C)on2)cc1Cl", "note": "+ Cc1sc2c(c1C)C(c1ccc(Cl)cc1)=N[C@@H](CC(=O)OC(C)(C)C)c1nnc(C)n1-2 [NCGC00250412-19]", "excess over highest single agent": -142}
{"smiles": "N#C/C(=C(/N)Sc1ccc(N)cc1)c1ccccc1C(F)(F)F", "note": "+ Cc1sc2c(c1C)C(c1ccc(Cl)cc1)=N[C@@H](CC(=O)OC(C)(C)C)c1nnc(C)n1-2 [NCGC00250412-19]", "excess over highest single agent": -146}
{"smiles": "COc1cc2nc(N3CCN(C(=O)C4COc5ccccc5O4)CC3)nc(N)c2cc1OC", "note": "(stereo not drawn) + Cc1sc2c(c1C)C(c1ccc(Cl)cc1)=N[C@@H](CC(=O)OC(C)(C)C)c1nnc(C)n1-2 [NCGC00250412-19]", "excess over highest single agent": 68.4}
{"smiles": "O=c1c(O)c(-c2ccc(O)cc2)oc2cc(O)cc(O)c12", "note": "+ Cc1sc2c(c1C)C(c1ccc(Cl)cc1)=N[C@@H](CC(=O)OC(C)(C)C)c1nnc(C)n1-2 [NCGC00250412-19]", "excess over highest single agent": -136}
{"smiles": "FC(F)(F)c1ccc(Nc2nc3ccc(Oc4ccnc(-c5ncc(C(F)(F)F)[nH]5)c4)cc3[nH]2)cc1", "note": "+ Cc1sc2c(c1C)C(c1ccc(Cl)cc1)=N[C@@H](CC(=O)OC(C)(C)C)c1nnc(C)n1-2 [NCGC00250412-19]", "excess over highest single agent": -7.92}
{"smiles": "CC(C)(C)c1cc(NC(=O)Nc2ccc(-c3cn4c(n3)sc3cc(OCCN5CCOCC5)ccc34)cc2)no1", "note": "+ Cc1sc2c(c1C)C(c1ccc(Cl)cc1)=N[C@@H](CC(=O)OC(C)(C)C)c1nnc(C)n1-2 [NCGC00250412-19]", "excess over highest single agent": -142}
{"smiles": "CCOc1ccccc1N=Nc1c(C)[nH]n(-c2nc(-c3ccccc3)cs2)c1=O", "note": "+ Cc1sc2c(c1C)C(c1ccc(Cl)cc1)=N[C@@H](CC(=O)OC(C)(C)C)c1nnc(C)n1-2 [NCGC00250412-19]", "excess over highest single agent": -77.9}
{"smiles": "CC1(C)Cc2c(-c3ccccc3)c(-c3ccc(Cl)cc3)c(CC(=O)O)n2C1", "note": "+ Cc1sc2c(c1C)C(c1ccc(Cl)cc1)=N[C@@H](CC(=O)OC(C)(C)C)c1nnc(C)n1-2 [NCGC00250412-19]", "excess over highest single agent": -140}
{"smiles": "O=C(/C=C/c1cccc(S(=O)(=O)Nc2ccccc2)c1)NO", "note": "+ Cc1sc2c(c1C)C(c1ccc(Cl)cc1)=N[C@@H](CC(=O)OC(C)(C)C)c1nnc(C)n1-2 [NCGC00250412-19]", "excess over highest single agent": -269}
{"smiles": "NC[C@H]1O[C@H](O[C@H]2[C@H](O)[C@@H](O[C@H]3O[C@H](CO)[C@@H](O)[C@H](N)[C@H]3O)[C@H](N)C[C@@H]2N)[C@H](N)C[C@@H]1O", "note": "+ Cc1sc2c(c1C)C(c1ccc(Cl)cc1)=N[C@@H](CC(=O)OC(C)(C)C)c1nnc(C)n1-2 [NCGC00250412-19]", "excess over highest single agent": -18.3}
{"smiles": "CNC(=O)c1c(F)cccc1Nc1nc(Nc2cc3c(cc2OC)CCN3C(=O)CN(C)C)nc2[nH]ccc12", "note": "+ Cc1sc2c(c1C)C(c1ccc(Cl)cc1)=N[C@@H](CC(=O)OC(C)(C)C)c1nnc(C)n1-2 [NCGC00250412-19]", "excess over highest single agent": -63.2}
{"smiles": "CCn1c(=O)c2c(nc(/C=C/c3ccc(OC)c(OC)c3)n2C)n(CC)c1=O", "note": "+ Cc1sc2c(c1C)C(c1ccc(Cl)cc1)=N[C@@H](CC(=O)OC(C)(C)C)c1nnc(C)n1-2 [NCGC00250412-19]", "excess over highest single agent": 11.3}
{"smiles": "C[C@@H]1C/C=C/C=C/C=C/C=C/[C@H](O[C@@H]2O[C@H](C)[C@@H](O)[C@H](N)[C@@H]2O)C[C@@H]2O[C@](O)(C[C@@H](O)C[C@H]3O[C@@H]3/C=C/C(=O)O1)C[C@H](O)[C@H]2C(=O)O", "note": "+ Cc1sc2c(c1C)C(c1ccc(Cl)cc1)=N[C@@H](CC(=O)OC(C)(C)C)c1nnc(C)n1-2 [NCGC00250412-19]", "excess over highest single agent": 52.8}
{"smiles": "CN1CCN2c3ncccc3Cc3ccccc3C2C1", "note": "(stereo not drawn) + Cc1sc2c(c1C)C(c1ccc(Cl)cc1)=N[C@@H](CC(=O)OC(C)(C)C)c1nnc(C)n1-2 [NCGC00250412-19]", "excess over highest single agent": -12.2}
{"smiles": "CC(C)N(CC[C@H](c1ccccc1)c1cc(CO)ccc1O)C(C)C", "note": "+ Cc1sc2c(c1C)C(c1ccc(Cl)cc1)=N[C@@H](CC(=O)OC(C)(C)C)c1nnc(C)n1-2 [NCGC00250412-19]", "excess over highest single agent": -7.25}
{"smiles": "CC[C@H](NC(=O)[C@H](C)NC)C(=O)N1C[C@@H](O)C[C@H]1Cc1c(-c2[nH]c3cc(F)ccc3c2C[C@@H]2C[C@H](O)CN2C(=O)[C@H](CC)NC(=O)[C@H](C)NC)[nH]c2cc(F)ccc12", "note": "+ Cc1sc2c(c1C)C(c1ccc(Cl)cc1)=N[C@@H](CC(=O)OC(C)(C)C)c1nnc(C)n1-2 [NCGC00250412-19]", "excess over highest single agent": -61.9}
{"smiles": "COc1ccc(N(C(=O)Oc2c(C)cccc2C)c2ccnc(Nc3ccc(N4CCN(C)CC4)cc3)n2)c(OC)c1", "note": "+ Cc1sc2c(c1C)C(c1ccc(Cl)cc1)=N[C@@H](CC(=O)OC(C)(C)C)c1nnc(C)n1-2 [NCGC00250412-19]", "excess over highest single agent": -226}
